Reference: patent publication US20050048622A1 (Genentech, published 2005)
No constants are given. Whether binding was seen depends on the method and setting. For some of these results: Binding seen in cells or lysates may run through a third protein. Some entries that bind do so weakly or less than the wild type. Where a sequence is shown, tags or fusion partners need not be part of it.

What was measured:
[1] = molecular target: T1, ErbB4.Fc (UniProt Q15303); experiment: co-immunoprecipitation in vitro
T1 sequence (looked up): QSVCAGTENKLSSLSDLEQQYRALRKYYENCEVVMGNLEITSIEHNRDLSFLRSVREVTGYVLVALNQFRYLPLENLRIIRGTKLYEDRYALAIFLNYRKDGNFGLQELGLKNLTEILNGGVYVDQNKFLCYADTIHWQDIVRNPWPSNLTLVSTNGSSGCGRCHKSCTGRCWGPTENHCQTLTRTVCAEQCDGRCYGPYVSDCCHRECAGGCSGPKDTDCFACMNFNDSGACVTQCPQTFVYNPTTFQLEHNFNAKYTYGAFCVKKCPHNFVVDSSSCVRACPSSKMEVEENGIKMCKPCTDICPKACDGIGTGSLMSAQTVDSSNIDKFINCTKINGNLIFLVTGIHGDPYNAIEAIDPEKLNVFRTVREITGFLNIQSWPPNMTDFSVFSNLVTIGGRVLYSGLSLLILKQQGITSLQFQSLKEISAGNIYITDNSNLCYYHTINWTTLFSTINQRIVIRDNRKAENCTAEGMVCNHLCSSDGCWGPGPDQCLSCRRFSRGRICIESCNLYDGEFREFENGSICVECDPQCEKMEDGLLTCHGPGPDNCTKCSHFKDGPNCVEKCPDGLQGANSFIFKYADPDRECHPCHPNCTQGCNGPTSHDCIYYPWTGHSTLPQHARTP

[2] = molecular target: T2, human ErbB4 receptor (human, UniProt Q15303 26-1308); experiment: FACS on K562^erbB4 cells, anti-gD detection
T2 construct: whole, on cells; also called HER4; K562^erbB4 cells

[3] = molecular target: T2, human ErbB4 receptor; experiment: summing up of the FACS and plate assays
[4] = molecular target: T1, ErbB4.Fc; experiment: competition against ^125I-NRG3^EGF.Fc on immobilized soluble ErbB4 receptor

Measured: binding

B1: NRG3^EGF.Fc (Fc fusion, not shown: small tags and cut ends; a dimerising Fc or GST)
chain: ERSEHFKPCRDKDLAYCLNDGECFVIETLTGSHKHCRCKEGYQGVRCDQFLPKTDSILSDP
modifications: radio-iodinated (^125I, lactoperoxidase method) where used as tracer
binds: [1] | [2] | [3] | [4]
